Experimental findings from PMC4218952 are described below.

Amino acid sequences for entries named in this document (tags omitted). Residues count along the entry.
UniProt Q13002, residues 32-908: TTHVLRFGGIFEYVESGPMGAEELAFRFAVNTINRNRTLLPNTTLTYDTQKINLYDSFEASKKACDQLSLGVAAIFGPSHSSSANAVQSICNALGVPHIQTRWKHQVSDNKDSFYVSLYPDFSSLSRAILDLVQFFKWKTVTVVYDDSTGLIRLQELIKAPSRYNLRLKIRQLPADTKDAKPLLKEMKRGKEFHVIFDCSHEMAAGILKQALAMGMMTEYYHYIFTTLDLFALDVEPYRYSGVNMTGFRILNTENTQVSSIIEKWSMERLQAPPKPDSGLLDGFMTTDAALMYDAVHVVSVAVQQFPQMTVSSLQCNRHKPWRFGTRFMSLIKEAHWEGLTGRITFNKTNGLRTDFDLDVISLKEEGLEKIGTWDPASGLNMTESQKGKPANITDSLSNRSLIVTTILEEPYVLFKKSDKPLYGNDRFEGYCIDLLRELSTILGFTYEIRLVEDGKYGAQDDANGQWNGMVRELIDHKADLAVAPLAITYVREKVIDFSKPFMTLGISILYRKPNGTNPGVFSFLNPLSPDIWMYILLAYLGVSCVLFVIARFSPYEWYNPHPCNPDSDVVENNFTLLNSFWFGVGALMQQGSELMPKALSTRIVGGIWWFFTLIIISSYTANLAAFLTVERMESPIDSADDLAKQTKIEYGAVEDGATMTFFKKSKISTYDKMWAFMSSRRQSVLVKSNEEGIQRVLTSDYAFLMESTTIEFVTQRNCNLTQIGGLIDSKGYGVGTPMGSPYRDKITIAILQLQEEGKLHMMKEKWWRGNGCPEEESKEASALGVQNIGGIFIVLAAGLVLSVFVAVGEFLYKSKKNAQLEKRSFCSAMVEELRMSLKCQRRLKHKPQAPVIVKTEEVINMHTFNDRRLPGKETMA
UniProt O60260: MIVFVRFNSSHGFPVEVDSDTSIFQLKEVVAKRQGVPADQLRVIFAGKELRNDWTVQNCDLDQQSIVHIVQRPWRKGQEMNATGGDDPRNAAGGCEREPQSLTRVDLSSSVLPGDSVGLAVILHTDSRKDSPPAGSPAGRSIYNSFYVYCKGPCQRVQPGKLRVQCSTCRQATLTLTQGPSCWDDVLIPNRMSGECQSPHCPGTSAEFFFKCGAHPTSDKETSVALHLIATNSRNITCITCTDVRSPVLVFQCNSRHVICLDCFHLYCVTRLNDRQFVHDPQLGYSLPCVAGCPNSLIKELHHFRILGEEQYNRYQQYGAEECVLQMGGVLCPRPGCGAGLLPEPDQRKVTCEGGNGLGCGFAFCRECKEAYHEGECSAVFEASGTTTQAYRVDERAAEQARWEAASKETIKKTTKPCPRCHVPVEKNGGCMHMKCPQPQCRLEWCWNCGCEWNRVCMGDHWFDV
UniProt P39087, residues 32-908: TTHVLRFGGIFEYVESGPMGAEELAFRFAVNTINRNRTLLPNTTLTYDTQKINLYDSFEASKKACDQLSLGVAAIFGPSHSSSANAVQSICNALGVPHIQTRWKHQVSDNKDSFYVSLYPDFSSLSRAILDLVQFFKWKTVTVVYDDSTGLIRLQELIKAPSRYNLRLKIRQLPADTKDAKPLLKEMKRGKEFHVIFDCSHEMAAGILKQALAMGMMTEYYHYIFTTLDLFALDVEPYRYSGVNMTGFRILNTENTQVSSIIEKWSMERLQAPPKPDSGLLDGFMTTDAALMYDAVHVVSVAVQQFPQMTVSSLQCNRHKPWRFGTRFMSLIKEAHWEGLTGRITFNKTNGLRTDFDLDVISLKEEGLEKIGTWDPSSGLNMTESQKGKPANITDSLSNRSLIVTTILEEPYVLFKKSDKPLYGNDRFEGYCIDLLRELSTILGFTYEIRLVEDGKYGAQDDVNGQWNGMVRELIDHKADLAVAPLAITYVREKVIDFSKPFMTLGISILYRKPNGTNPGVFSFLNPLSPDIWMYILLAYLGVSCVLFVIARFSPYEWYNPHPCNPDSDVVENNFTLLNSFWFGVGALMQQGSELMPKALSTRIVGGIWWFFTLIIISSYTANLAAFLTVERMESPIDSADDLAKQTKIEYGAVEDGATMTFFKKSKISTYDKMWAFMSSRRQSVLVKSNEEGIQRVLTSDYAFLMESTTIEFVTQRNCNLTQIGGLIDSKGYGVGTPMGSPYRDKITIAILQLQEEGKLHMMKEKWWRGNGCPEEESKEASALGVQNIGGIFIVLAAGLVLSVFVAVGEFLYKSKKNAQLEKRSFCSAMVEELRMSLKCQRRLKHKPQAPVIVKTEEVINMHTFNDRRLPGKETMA

One test deals with GluK2a-YFP (UniProt Q13002). In words: FRET or BRET; FRET between GluK2a-YFP and CFP-parkin in HEK293T cells, pixel-by-pixel FRET efficiency; also before and after 10 min with 10 mM glutamate. For orientation: BRET reads energy transfer from a luciferase to a nearby fluorophore.
Test [1] addresses endogenous parkin (human brain) (human (endogenous in brain)) (UniProt O60260). Kind of test: co-IP; endogenous proteins in whole mouse brain and whole human brain lysates; parkin antibody, Protein A or G agarose, washes with 500 mM NaCl, 1% Triton X-100.
In test [2] the target is T1, endogenous parkin (mouse brain) (mouse (endogenous in brain)) (UniProt Q9WVS6).
T1 sequence: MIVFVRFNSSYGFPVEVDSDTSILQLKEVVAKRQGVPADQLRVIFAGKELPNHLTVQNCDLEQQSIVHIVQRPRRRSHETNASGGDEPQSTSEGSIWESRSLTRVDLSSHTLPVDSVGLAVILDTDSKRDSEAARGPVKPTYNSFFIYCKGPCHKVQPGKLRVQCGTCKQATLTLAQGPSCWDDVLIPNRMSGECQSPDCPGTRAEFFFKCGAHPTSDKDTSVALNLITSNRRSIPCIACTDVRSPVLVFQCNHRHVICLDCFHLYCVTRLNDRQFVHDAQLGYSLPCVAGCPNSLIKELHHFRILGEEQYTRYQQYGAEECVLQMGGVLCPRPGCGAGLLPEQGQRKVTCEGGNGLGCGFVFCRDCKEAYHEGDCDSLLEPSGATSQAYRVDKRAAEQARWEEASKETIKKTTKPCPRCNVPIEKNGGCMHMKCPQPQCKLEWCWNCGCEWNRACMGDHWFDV
Described as above.

No constants are given. Whether binding was seen depends on the method and setting. Binding seen in cells or lysates may run through a third protein. Some results given as binding are weak or reduced against the parent protein; the word gives no strength.

For the substance “CFP-parkin (from UniProt O60260 1-465) (enzyme)”, the binding entry with GluK2a-YFP is given as “binds”.
Turning to “endogenous GluK2 (human brain) (from UniProt Q13002 32-908) (receptor)”, the binding result in test [1] was “binds weakly”.
On to “endogenous GluK2 (mouse brain) (from UniProt P39087 32-908) (receptor)”, for which the binding result in test [2] is “binds weakly”.
